Measurements reported in PubChem BioAssay AID1259425 (University of Nebraska Medical Center, 2018)

- Assay: 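Find knockdowns that reproduce the gene expression pattern seen when KSR1 is lost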 (primary screen)
- Cell system: HCT116 human colon cancer cells
- Reagent: siRNA pool against human genes, 50 nM siRNA
- Detection: 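mRNA of six signature genes measured together by branched-DNA assay after 50 nM siRNA pool, blank removed, divided by geometric mean of two housekeeping genes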
- Reading the numbers: BNIP3L mRNA: higher = more BNIP3L transcript after knockdown; NDRG1 mRNA: higher = more NDRG1 transcript after knockdown
The deposit covers about 14,000 reagents; shown is a random part of them. Further read-outs or replicates are left out here. Not given: the time to read-out.

no.	Target gene	BNIP3L mRNA, set 1	NDRG1 mRNA, set 1
1	BAG6	0.164	0.209
2	PIGZ	0.198	0.394
3	GCM1	0.0829	0.274
4	LRRC37A2	0.19	0.189
5	KIF4A	0.0508	0.133
6	ARFIP2	0.161	0.114
7	CARD11	0.199	0.165
8	PICK1	0.132	0.123
9	AP1AR	0.159	0.172
10	ZC3H8	0.107	0.108
11	RPL10	0.503	0.604
12	PADI3	0.0991	0.236
13	MAP4K1	0.207	0.293
14	TMEM126A	0.173	0.153
15	PTPN6	0.099	0.111
16	MEMO1	0.117	0.324
17	PLXNA4	0.0601	0.0855
18	EIF4B	0.0396	0.213
19	SEZ6L2	0.087	0.114
20	SRI	0.251	0.765
21	GPR107	0.166	0.355
22	CCL5	0.0942	0.282
23	RPS24	0.118	0.168
24	SMAD7	0.0902	0.0664
25	WNT2B	0.056	0.245
26	MAGIX	0.0997	0.173
27	TRNT1	0.103	0.322
28	GNPTAB	0.0869	0.125
29	CHML	0.125	0.155
30	SGSH	0.113	0.173
31	TMEM38A	0.153	0.238
32	CYP2B6	0.0854	0.131
33	PBOV1	0.164	0.554
34	CEBPZ	0.492	0.304

Part of the list above, set out differently:
Target gene,"BNIP3L mRNA, set 1","NDRG1 mRNA, set 1"
GCM1,0.0829,0.274
LRRC37A2,0.19,0.189
